# According to the supplement of paper PMC8728848:
# The other results are listed elsewhere or left out.
# Columns and labels:
# Test in all cases: glycan array binding signal (z-score within array); higher = stronger binding
# Settings in all cases: glycan notation: IUPAC condensed, linker removed
# Fuc(a1-2)Gal = biological target: Fuc(a1-2)Gal
# Outline: (§1)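 The Consortium for Functional Glycomics database supplied 3228 glycan arrays, of which those lacking an available protein sequence were dropped. The binding signal, a within-array Z-score, was averaged across arrays of the same protein sequence and across linkers. Negative scores can be read as non-binding.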
# Fuc(a1-2)Gal(b1-3)GalNAc = biological target: Fuc(a1-2)Gal(b1-3)GalNAc
# Outline: as §1
# [1] = biological target: Fuc(a1-2)Gal(b1-3)GalNAc(a1-3)[Fuc(a1-2)]Gal(b1-4)Glc
# Outline: as §1
# [2] = biological target: Fuc(a1-2)Gal(b1-3)GalNAc(a1-3)[Fuc(a1-2)]Gal(b1-4)GlcNAc
# Outline: as §1
# [3] = biological target: Fuc(a1-2)Gal(b1-3)GalNAc(b1-3)Gal
# Outline: as §1
# [4] = biological target: Fuc(a1-2)Gal(b1-3)GalNAc(b1-3)Gal(a1-4)Gal(b1-4)Glc
# Outline: as §1
# [5] = biological target: Fuc(a1-2)Gal(b1-3)GalNAc(b1-4)[Neu5Ac(a2-3)]Gal(b1-4)Glc
# Outline: as §1
# Fuc(a1-2)Gal(b1-3)GlcNAc = biological target: Fuc(a1-2)Gal(b1-3)GlcNAc
# Outline: as §1
# [6] = biological target: Fuc(a1-2)Gal(b1-3)GlcNAc(b1-2)Man(a1-3)[Fuc(a1-2)Gal(b1-3)GlcNAc(b1-2)Man(a1-6)]Man(b1-4)GlcNAc(b1-4)GlcNAc
# Outline: as §1
# [7] = biological target: Fuc(a1-2)Gal(b1-3)GlcNAc(b1-2)Man(a1-3)[Fuc(a1-2)Gal(b1-3)GlcNAc(b1-2)Man(a1-6)]Man(b1-4)GlcNAc(b1-4)[Fuc(a1-6)]GlcNAc
# Outline: as §1
# [8] = biological target: Fuc(a1-2)Gal(b1-3)GlcNAc(b1-3)Gal(b1-4)Glc
# Outline: as §1
# [9] = biological target: Fuc(a1-2)Gal(b1-3)GlcNAc(b1-3)GalNAc
# Outline: as §1
# [10] = biological target: Fuc(a1-2)Gal(b1-3)GlcNAc(b1-3)[Fuc(a1-2)Gal(b1-3)GlcNAc(b1-6)]GalNAc
# Outline: as §1
# [11] = biological target: Fuc(a1-2)Gal(b1-3)GlcNAc(b1-3)[Gal(b1-4)GlcNAc(b1-6)]Gal(b1-4)Glc
# Outline: as §1
# [12] = biological target: Fuc(a1-2)Gal(b1-3)GlcNAc(b1-3)[Neu5Ac(a2-6)Gal(b1-4)GlcNAc(b1-6)]Gal(b1-4)Glc
# Outline: as §1
# [13] = biological target: Fuc(a1-2)Gal(b1-3)GlcNAc6S
# Outline: as §1
# [14] = biological target: Fuc(a1-2)Gal(b1-3)[Fuc(a1-4)]GlcNAc
# Outline: as §1
# [15] = biological target: Fuc(a1-2)Gal(b1-3)[Fuc(a1-4)]GlcNAc(b1-2)Man(a1-3)[Fuc(a1-2)Gal(b1-3)[Fuc(a1-4)]GlcNAc(b1-2)Man(a1-3)]Man(b1-4)GlcNAc(b1-4)GlcNAc
# Outline: as §1
# [16] = biological target: Fuc(a1-2)Gal(b1-3)[Fuc(a1-4)]GlcNAc(b1-2)Man(a1-3)[Fuc(a1-2)Gal(b1-3)[Fuc(a1-4)]GlcNAc(b1-2)Man(a1-6)]Man(b1-4)GlcNAc(b1-4)[Fuc(a1-6)]GlcNAc(b1-4)[Fuc(a1-6)]GlcNAc
# Outline: as §1
# [17] = biological target: Fuc(a1-2)Gal(b1-3)[Fuc(a1-4)]GlcNAc(b1-3)[Fuc(a1-3)[Gal(b1-4)]GlcNAc(b1-6)]Gal(b1-4)Glc
# Outline: as §1
# [18] = biological target: Fuc(a1-2)Gal(b1-3)[Fuc(a1-4)]GlcNAc(b1-3)[Gal(b1-4)GlcNAc(b1-6)]Gal(b1-4)Glc
# Outline: as §1
# Fuc(a1-2)Gal(b1-4)Glc = biological target: Fuc(a1-2)Gal(b1-4)Glc
# Outline: as §1
# Fuc(a1-2)Gal(b1-4)Glc6S = biological target: Fuc(a1-2)Gal(b1-4)Glc6S
# Outline: as §1
# Fuc(a1-2)Gal(b1-4)GlcNAc = biological target: Fuc(a1-2)Gal(b1-4)GlcNAc
# Outline: as §1
# [19] = biological target: Fuc(a1-2)Gal(b1-4)GlcNAc(b1-2)Man
# Outline: as §1
# [20] = biological target: Fuc(a1-2)Gal(b1-4)GlcNAc(b1-2)Man(a1-3)[Fuc(a1-2)Gal(b1-4)GlcNAc(b1-2)Man(a1-6)]Man(b1-4)GlcNAc(b1-4)GlcNAc
# Outline: as §1
# [21] = biological target: Fuc(a1-2)Gal(b1-4)GlcNAc(b1-2)Man(a1-3)[Fuc(a1-2)Gal(b1-4)GlcNAc(b1-2)Man(a1-6)]Man(b1-4)GlcNAc(b1-4)[Fuc(a1-6)]GlcNAc
# Outline: as §1
# [22] = biological target: Fuc(a1-2)Gal(b1-4)GlcNAc(b1-2)[Fuc(a1-2)Gal(b1-4)GlcNAc(b1-4)]Man(a1-3)[Fuc(a1-2)Gal(b1-4)GlcNAc(b1-2)Man(a1-6)]Man(b1-4)GlcNAc(b1-4)GlcNAc
# Outline: as §1
# [23] = biological target: Fuc(a1-2)Gal(b1-4)GlcNAc(b1-3)Gal(b1-4)GlcNAc
# Outline: as §1
# [24] = biological target: Fuc(a1-2)Gal(b1-4)GlcNAc(b1-3)Gal(b1-4)GlcNAc(b1-2)Man(a1-3)[Fuc(a1-2)Gal(b1-4)GlcNAc(b1-3)Gal(b1-4)GlcNAc(b1-2)Man(a1-6)]Man(b1-4)GlcNAc(b1-4)GlcNAc
# Outline: as §1
binder,measurement,setting,value
TAL6-6LysM (Trichoderma atroviride) (protein) AASKLGVPQPAQRDQVNCQLYAVQPNDNCIDISSKNNITYAQLLSWNPSLSSTCSNLASLNSSSICVSNPKGTFSISSNTVGATDIATTTAPVPSPTLDQTTSRCAKYYQVSDGDDCSHLTAQFAITLKDFIFLNSEVWQNCTNLELGYYYCVEPVGYISTYPGYLPTATTKPFNQTSATSLPYDGDPWARFSSNSSVIPIANGTRVDCYSYVYVKNLTENLFADCWNMASMYEITREELVLWNPSLGNDGSSGSNLSGAEASQVASSIAIPTTAPSSITTNLYTYPCTVAANISYCVALVSSTGALPTNTAPPGPHASGEISNCTAWFAPEAYDTCKSILDIFEMSFANFYKMNPSVGPDCSGLAVGTNYCVSTYPNGEDPNDDWDGDDSIPSISPTGIITPTPTQSGMVSNCNKFYDVHSNDGCSAIASSQHVDLSSLYKWNPAIKTDCSGLQASVYVCIGILTTSMSTTSKLPTTTSKPSTTSKPPTGITTPTPTQSGMVKNCNKFYDVHSGDGCSAIASSQKVNLSSFYLWNPAVKTDCSGLQASVFVCIGTLTTSMSTTTSKLPTTTSKPSTTSKPPTGIITPTPTQNGMVKNCNKFYDVHSGDGCSAIASSQKVNLSSFYLWNPAVKTDCSGLQASVFVCVGTATTTTAAGITTPTPTQSGMVSGCNKFYDVHAGDGCSAIASSQKIALSSLYKWNPAVKTDCSGLQASVYICIGVGNAAAARVTGAAASFLEQKLISEEDLNSAVDHHHHHH,glycan array binding signal (z-score),Fuc(a1-2)Gal,0.952
same,glycan array binding signal (z-score),Fuc(a1-2)Gal(b1-3)GalNAc,-0.591
same,glycan array binding signal (z-score),[1],-0.209
same,glycan array binding signal (z-score),[2],-1.77
same,glycan array binding signal (z-score),[3],0.073
same,glycan array binding signal (z-score),[4],-0.121
same,glycan array binding signal (z-score),[5],-0.588
same,glycan array binding signal (z-score),Fuc(a1-2)Gal(b1-3)GlcNAc,-0.073
same,glycan array binding signal (z-score),[6],-1.23
same,glycan array binding signal (z-score),[7],-0.903
same,glycan array binding signal (z-score),[8],-0.234
same,glycan array binding signal (z-score),[9],-0.595
same,glycan array binding signal (z-score),[10],0.213
same,glycan array binding signal (z-score),[11],0.974
same,glycan array binding signal (z-score),[12],-1.47
same,glycan array binding signal (z-score),[13],0.906
same,glycan array binding signal (z-score),[14],-1.18
same,glycan array binding signal (z-score),[15],-2.41
same,glycan array binding signal (z-score),[16],0.449
same,glycan array binding signal (z-score),[17],-0.675
same,glycan array binding signal (z-score),[18],-0.124
same,glycan array binding signal (z-score),Fuc(a1-2)Gal(b1-4)Glc,0.31
same,glycan array binding signal (z-score),Fuc(a1-2)Gal(b1-4)Glc6S,0.072
same,glycan array binding signal (z-score),Fuc(a1-2)Gal(b1-4)GlcNAc,1.27
same,glycan array binding signal (z-score),[19],-0.377
same,glycan array binding signal (z-score),[20],0.43
same,glycan array binding signal (z-score),[21],-1.15
same,glycan array binding signal (z-score),[22],0.463
same,glycan array binding signal (z-score),[23],-0.314
same,glycan array binding signal (z-score),[24],-1.4

# Given with bars between the fields: entries from further up.
binder | measurement | setting | value
TAL6-6LysM (Trichoderma atroviride) (protein) AASKLGVPQPAQRDQVNCQLYAVQPNDNCIDISSKNNITYAQLLSWNPSLSSTCSNLASLNSSSICVSNPKGTFSISSNTVGATDIATTTAPVPSPTLDQTTSRCAKYYQVSDGDDCSHLTAQFAITLKDFIFLNSEVWQNCTNLELGYYYCVEPVGYISTYPGYLPTATTKPFNQTSATSLPYDGDPWARFSSNSSVIPIANGTRVDCYSYVYVKNLTENLFADCWNMASMYEITREELVLWNPSLGNDGSSGSNLSGAEASQVASSIAIPTTAPSSITTNLYTYPCTVAANISYCVALVSSTGALPTNTAPPGPHASGEISNCTAWFAPEAYDTCKSILDIFEMSFANFYKMNPSVGPDCSGLAVGTNYCVSTYPNGEDPNDDWDGDDSIPSISPTGIITPTPTQSGMVSNCNKFYDVHSNDGCSAIASSQHVDLSSLYKWNPAIKTDCSGLQASVYVCIGILTTSMSTTSKLPTTTSKPSTTSKPPTGITTPTPTQSGMVKNCNKFYDVHSGDGCSAIASSQKVNLSSFYLWNPAVKTDCSGLQASVFVCIGTLTTSMSTTTSKLPTTTSKPSTTSKPPTGIITPTPTQNGMVKNCNKFYDVHSGDGCSAIASSQKVNLSSFYLWNPAVKTDCSGLQASVFVCVGTATTTTAAGITTPTPTQSGMVSGCNKFYDVHAGDGCSAIASSQKIALSSLYKWNPAVKTDCSGLQASVYICIGVGNAAAARVTGAAASFLEQKLISEEDLNSAVDHHHHHH | glycan array binding signal (z-score) | Fuc(a1-2)Gal(b1-4)GlcNAc | 1.27
same | glycan array binding signal (z-score) | [22] | 0.463
